The target in test [1] is Tribbles pseudokinase 3 (human (endogenous in AN3CA and HEC1A)) (UniProt Q96RU7). The test can be described thus: co-IP; 0.5 mg of total cellular proteins from AN3CA cells, immunoprecipitation with an anti-TRIB3 antibody or control IgG in IP buffer (20 mM HEPES pH 7.9, 2 mM MgCl2, 0.2 mM EDTA, 0.1 mM KCl, 1 mM dithiothreitol, 10% glycerol, 0.1% NP-40) at 4 °C overnight, Protein G Mag sepharose beads, Western blot.

Sequences of proteins named here, by UniProt entry; tags and fusion partners are left off.
UniProt P49841: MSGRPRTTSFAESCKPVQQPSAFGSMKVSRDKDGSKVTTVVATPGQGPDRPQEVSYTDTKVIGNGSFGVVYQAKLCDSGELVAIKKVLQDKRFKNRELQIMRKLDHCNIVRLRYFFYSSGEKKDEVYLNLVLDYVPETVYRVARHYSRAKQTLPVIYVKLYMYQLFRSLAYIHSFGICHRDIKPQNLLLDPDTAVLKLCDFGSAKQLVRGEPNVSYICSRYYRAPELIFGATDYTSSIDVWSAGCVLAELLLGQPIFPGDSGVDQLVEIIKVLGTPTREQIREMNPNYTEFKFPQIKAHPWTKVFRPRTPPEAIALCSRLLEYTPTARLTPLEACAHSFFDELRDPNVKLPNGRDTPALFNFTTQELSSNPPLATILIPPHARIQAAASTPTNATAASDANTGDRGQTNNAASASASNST

The target of test [2] is T1, Tribbles pseudokinase 3 (human (endogenous in AN3CA and HEC1A)), Q96RU7.
T1 chain: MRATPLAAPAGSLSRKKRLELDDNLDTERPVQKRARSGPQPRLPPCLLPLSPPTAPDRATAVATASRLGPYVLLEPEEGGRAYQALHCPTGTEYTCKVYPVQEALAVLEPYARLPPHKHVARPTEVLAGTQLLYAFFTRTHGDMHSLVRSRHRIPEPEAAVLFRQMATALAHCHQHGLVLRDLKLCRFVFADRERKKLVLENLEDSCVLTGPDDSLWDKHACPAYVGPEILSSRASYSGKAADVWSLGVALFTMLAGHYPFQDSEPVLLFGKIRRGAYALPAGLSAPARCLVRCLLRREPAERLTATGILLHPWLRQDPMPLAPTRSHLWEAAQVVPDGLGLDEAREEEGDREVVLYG
The description is as above. The note with it: remark: other sources report otherwise.

No constants are given. Whether binding was seen depends on the method and setting. In cells and extracts the contact can be indirect. Some entries that bind do so weakly or less than the wild type.

Consider GSK3β (from UniProt P49841 1-420), for which the binding entry in test [1] is “binds”.

B1: β-catenin, P35222 1-781 (protein)
chain: MATQADLMELDMAMEPDRKAAVSHWQQQSYLDSGIHSGATTTAPSLSGKGNPEEEDVDTSQVLYEWEQGFSQSFTQEQVADIDGQYAMTRAQRVRAAMFPETLDEGMQIPSTQFDAAHPTNVQRLAEPSQMLKHAVVNLINYQDDAELATRAIPELTKLLNDEDQVVVNKAAVMVHQLSKKEASRHAIMRSPQMVSAIVRTMQNTNDVETARCTAGTLHNLSHHREGLLAIFKSGGIPALVKMLGSPVDSVLFYAITTLHNLLLHQEGAKMAVRLAGGLQKMVALLNKTNVKFLAITTDCLQILAYGNQESKLIILASGGPQALVNIMRTYTYEKLLWTTSRVLKVLSVCSSNKPAIVEAGGMQALGLHLTDPSQRLVQNCLWTLRNLSDAATKQEGMEGLLGTLVQLLGSDDINVVTCAAGILSNLTCNNYKNKMMVCQVGGIEALVRTVLRAGDREDITEPAICALRHLTSRHQEAEMAQNAVRLHYGLPVVVKLLHPPSHWPLIKATVGLIRNLALCPANHAPLREQGAIPRLVQLLVRAHQDTQRRTSMGGTQQQFVEGVRMEEIVEGCTGALHILARDVHNRIVIRGLNTIPLFVQLLYSPIENIQRVAAGVLCELAQDKEAAEAIEAEGATAPLTELLHSRNEGVATYAAAVLFRMSEDKPQDYKKRLSVELTSSLFRTEPMAWNETADLGLDIGAQGEPLGYRQDDPSYRSFHSGGYGQDALGMDPMMEHEMGGHHPGADYPVDGLPDLGHAQDLMDGLPPGDSNQLAWFDTDL
As to B1, the binding entry in test [2] is “no binding”.

Source of the values: paper PMC7765506.
